Assay results taken from PMC9321536.
Substitutions are numbered along the chain they refer to. Results are given in words; binding and its absence hold for the method and conditions named. Binding seen in cells or lysates may run through a third protein. Binding can be weak; no strength is given. Where a sequence is shown, tags or fusion partners need not be part of it.

Assays:
Experiment in all cases: co-IP; lysates of HEK 293T cells transfected with myc-tagged wild-type or mutated SUCNR1; precleared, SUCNR1 precipitated (methods: anti-SUCNR1 antibody and protein A/G-Sepharose at 4 °C; legend of Figure 5B: anti-myc antibody); washes with 0.7 M NaCl, no SDS; Western blot for RAB2, RAB11, COX-2
[1] = molecular target: T1, wild-type SUCNR1 (myc-tagged) (human) (UniProt Q9BXA5)
T1 sequence (chain, N-glycosylated at N8 and N168): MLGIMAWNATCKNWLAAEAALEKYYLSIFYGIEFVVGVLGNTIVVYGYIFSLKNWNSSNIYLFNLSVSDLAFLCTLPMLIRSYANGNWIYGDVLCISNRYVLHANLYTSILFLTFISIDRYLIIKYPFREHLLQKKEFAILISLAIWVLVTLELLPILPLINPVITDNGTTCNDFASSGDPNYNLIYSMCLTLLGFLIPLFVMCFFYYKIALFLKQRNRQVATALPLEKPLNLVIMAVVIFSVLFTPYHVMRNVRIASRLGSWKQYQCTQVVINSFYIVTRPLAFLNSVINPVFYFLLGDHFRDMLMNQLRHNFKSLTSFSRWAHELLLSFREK

[2] = molecular target: T2, SUCNR1 N168A (myc-tagged) (human) (UniProt Q9BXA5)
T2 sequence (chain, N-glycosylated at N8): T1 sequence (chain, N-glycosylated at N8 and N168) with N168A

[3] = molecular target: T3, SUCNR1 N8A (myc-tagged) (human) (UniProt Q9BXA5)
T3 sequence (chain, N-glycosylated at N168): T1 sequence (chain, N-glycosylated at N8 and N168) with N8A

Row | binding [1] | binding [2] | binding [3] | Substance
1 | no binding | no binding | binds | RAB11 (human (endogenous in HEK 293T))
2 | binds | binds | binds weakly | RAB2 (human (endogenous in HEK 293T))
